The values below come from article PMC4762426.

Amino acid sequences for entries named in this document (tags omitted).
UniProt O14686: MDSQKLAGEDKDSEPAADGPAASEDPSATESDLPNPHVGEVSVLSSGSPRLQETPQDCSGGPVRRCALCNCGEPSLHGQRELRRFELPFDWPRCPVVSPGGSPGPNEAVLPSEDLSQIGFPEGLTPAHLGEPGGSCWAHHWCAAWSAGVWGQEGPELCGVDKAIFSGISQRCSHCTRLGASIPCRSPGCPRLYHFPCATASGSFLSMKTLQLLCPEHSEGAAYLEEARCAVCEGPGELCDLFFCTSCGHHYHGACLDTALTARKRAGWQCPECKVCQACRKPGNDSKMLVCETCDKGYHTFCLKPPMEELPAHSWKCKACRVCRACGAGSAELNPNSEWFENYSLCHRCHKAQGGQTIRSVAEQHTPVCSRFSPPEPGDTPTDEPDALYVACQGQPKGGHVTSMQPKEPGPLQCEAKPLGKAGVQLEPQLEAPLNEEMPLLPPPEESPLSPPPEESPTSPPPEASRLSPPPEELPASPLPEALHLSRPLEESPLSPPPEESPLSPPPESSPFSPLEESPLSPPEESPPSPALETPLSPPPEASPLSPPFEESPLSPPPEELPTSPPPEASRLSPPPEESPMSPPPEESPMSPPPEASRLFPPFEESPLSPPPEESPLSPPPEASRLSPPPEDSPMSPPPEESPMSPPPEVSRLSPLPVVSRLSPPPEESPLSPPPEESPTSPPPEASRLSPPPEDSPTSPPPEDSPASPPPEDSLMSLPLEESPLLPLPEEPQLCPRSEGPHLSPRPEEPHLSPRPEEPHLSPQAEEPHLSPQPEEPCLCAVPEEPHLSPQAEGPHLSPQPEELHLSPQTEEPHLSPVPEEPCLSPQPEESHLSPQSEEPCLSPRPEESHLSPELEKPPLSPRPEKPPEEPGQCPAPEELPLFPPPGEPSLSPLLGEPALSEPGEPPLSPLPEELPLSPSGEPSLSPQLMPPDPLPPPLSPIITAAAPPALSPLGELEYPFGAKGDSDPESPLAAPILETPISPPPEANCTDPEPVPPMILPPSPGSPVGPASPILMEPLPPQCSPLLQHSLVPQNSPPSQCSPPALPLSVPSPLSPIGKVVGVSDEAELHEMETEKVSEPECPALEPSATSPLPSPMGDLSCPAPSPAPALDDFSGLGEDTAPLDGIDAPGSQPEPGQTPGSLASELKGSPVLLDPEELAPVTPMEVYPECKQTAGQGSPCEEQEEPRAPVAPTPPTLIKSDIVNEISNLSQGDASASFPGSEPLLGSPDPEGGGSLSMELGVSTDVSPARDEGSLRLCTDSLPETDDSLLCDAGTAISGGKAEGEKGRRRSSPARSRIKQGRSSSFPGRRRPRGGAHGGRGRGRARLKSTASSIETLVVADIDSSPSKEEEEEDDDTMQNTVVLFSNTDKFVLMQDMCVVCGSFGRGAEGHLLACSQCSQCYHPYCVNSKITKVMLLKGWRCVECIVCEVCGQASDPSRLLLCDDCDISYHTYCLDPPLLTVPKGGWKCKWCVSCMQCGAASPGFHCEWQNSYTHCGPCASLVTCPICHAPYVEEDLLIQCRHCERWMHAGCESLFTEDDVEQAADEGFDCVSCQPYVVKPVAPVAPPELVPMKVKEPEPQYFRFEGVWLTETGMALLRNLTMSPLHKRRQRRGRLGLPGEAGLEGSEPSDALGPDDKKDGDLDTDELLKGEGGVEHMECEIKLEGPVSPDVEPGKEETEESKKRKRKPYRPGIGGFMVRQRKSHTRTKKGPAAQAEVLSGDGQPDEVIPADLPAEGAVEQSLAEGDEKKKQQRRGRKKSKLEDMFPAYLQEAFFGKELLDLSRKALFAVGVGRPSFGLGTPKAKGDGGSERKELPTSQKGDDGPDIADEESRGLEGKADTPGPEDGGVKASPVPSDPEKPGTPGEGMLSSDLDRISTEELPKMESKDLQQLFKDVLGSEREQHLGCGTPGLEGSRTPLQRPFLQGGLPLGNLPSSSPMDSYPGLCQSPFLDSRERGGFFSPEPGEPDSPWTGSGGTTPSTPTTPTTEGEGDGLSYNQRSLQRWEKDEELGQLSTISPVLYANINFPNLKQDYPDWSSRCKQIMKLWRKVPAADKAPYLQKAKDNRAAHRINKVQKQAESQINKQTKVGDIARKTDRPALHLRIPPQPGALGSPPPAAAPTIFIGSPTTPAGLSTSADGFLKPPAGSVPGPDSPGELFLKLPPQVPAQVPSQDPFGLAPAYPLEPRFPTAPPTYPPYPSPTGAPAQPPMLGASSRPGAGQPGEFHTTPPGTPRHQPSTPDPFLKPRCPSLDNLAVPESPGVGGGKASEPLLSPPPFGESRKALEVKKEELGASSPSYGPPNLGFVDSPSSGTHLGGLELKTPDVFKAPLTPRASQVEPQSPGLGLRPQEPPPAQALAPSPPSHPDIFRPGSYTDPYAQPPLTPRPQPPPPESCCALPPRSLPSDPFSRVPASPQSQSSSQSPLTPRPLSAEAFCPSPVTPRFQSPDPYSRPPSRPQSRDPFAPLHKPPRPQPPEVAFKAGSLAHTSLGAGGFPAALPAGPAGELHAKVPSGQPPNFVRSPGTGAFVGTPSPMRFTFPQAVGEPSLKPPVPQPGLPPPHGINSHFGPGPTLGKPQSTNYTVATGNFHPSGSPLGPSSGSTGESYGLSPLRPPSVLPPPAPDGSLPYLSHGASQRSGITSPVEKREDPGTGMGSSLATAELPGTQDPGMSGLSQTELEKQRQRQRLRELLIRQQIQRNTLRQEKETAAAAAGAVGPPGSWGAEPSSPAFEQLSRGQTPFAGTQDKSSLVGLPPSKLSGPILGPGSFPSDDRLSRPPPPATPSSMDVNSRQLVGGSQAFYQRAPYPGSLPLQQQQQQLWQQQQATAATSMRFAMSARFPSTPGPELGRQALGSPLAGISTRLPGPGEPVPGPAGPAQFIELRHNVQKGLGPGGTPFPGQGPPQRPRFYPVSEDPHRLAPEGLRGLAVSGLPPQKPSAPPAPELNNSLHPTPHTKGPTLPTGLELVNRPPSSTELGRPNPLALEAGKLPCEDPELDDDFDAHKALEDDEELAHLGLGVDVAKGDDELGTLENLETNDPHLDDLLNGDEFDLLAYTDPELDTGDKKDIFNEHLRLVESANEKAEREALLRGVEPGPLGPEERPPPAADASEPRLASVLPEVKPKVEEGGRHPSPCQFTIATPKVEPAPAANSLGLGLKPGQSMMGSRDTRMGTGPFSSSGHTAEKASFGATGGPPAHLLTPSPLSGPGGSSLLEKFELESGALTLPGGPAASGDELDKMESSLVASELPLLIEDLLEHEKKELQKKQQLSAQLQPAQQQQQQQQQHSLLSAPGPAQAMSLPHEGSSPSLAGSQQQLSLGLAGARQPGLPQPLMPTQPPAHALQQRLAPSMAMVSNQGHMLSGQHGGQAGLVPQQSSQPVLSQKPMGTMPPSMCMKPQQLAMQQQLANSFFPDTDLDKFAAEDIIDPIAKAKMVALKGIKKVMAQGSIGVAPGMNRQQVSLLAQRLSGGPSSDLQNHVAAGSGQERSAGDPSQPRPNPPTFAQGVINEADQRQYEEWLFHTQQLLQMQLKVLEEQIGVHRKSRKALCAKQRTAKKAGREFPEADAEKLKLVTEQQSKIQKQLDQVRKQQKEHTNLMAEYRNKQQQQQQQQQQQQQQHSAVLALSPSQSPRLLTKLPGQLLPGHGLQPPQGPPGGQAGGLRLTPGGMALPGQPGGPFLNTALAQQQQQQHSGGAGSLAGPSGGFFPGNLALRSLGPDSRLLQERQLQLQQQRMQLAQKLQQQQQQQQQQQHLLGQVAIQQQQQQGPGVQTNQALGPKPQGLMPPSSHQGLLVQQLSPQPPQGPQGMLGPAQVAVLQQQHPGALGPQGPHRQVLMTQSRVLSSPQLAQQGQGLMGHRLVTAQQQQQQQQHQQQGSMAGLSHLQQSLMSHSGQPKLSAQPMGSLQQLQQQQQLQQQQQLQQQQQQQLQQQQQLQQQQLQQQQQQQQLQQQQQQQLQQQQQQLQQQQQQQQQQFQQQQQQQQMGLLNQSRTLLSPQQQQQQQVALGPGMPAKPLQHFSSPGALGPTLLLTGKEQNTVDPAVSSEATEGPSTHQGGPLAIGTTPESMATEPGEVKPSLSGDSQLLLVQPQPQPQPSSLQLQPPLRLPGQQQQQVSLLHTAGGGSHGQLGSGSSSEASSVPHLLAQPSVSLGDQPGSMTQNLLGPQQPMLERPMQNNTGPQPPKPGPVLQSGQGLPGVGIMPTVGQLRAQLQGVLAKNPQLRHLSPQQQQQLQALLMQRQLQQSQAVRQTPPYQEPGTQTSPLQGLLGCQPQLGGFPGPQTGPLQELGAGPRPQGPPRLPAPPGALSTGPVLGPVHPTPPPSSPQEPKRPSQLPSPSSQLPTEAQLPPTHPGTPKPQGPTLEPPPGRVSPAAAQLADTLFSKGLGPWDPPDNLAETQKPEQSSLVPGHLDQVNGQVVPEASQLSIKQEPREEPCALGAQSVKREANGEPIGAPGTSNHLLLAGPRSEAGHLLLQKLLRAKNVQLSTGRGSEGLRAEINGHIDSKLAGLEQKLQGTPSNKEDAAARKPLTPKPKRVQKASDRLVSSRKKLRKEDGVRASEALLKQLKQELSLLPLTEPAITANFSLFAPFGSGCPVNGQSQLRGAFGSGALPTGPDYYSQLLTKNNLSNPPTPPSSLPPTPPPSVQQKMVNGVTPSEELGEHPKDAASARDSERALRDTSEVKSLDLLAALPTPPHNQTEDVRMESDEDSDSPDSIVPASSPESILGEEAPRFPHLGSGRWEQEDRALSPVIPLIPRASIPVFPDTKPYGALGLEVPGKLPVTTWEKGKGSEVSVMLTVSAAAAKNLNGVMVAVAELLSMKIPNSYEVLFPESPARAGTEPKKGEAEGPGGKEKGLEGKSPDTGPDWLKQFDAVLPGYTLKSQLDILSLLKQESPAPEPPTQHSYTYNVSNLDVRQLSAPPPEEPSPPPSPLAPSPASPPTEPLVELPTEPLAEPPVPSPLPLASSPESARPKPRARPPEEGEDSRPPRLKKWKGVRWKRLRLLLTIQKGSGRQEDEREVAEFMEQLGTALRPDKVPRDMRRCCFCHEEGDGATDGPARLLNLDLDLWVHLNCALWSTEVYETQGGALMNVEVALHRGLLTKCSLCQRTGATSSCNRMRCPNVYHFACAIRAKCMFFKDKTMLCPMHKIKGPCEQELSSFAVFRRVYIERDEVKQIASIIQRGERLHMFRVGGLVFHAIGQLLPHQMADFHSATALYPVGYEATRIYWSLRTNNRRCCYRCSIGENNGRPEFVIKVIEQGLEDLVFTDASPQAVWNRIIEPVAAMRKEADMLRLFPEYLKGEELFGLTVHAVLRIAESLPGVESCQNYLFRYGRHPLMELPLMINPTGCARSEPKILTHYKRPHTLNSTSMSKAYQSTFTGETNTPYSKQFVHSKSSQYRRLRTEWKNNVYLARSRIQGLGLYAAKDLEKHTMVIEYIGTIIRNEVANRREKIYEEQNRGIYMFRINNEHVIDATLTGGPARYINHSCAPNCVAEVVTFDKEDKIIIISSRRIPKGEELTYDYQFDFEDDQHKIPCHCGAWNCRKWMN
UniProt O94762: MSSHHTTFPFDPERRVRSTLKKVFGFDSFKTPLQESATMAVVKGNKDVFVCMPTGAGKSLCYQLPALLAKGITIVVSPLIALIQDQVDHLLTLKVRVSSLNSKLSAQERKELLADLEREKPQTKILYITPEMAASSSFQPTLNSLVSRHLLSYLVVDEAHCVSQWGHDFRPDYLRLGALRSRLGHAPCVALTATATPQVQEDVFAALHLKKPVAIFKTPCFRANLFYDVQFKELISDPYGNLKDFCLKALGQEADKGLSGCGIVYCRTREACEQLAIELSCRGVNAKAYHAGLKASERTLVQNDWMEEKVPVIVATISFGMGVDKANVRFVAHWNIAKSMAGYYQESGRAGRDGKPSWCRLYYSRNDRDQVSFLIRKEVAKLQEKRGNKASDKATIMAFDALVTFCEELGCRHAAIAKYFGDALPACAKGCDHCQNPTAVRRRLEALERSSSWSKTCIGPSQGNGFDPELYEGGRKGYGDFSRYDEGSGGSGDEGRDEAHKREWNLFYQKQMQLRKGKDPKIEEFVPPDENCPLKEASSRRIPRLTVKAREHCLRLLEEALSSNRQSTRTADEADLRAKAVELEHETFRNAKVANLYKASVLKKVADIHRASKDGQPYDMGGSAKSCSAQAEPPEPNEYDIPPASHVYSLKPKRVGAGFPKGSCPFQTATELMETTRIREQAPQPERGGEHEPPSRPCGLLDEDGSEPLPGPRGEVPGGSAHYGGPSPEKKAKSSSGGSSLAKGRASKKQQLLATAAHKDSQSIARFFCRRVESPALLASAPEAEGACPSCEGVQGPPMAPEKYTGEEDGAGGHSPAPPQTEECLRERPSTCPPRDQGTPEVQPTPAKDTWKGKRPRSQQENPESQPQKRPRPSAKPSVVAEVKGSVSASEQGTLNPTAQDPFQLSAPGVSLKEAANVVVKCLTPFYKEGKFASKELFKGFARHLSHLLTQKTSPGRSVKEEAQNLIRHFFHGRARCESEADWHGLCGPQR

No constants are given. Whether binding was seen depends on the method and setting. Binding seen in cells or lysates may run through a third protein. Some results given as binding are weak or reduced against the parent protein; the word gives no strength.

For the test, the target named is MLL2-Flag (human) (UniProt O14686). As to the kind of experiment: co-IP; MLL2-Flag immunoprecipitation from HCT116 nuclear extracts (Episeeker kit) treated with benzonase; Western blotting; parental cells without MLL2-Flag as control. Background: In western blotting, separated proteins are transferred to a membrane and probed.

Take PTIP (from UniProt Q6ZW49 1-1069): the binding entry was “binds”.

In the case of “RECQL5 (endogenous, HCT116) (from UniProt O94762 1-991)”, the binding entry is given as “binds”.
